In paper PMC6703431:
No constants are given. Whether binding was seen depends on the method and setting. Tags and fused reporters may be left off the sequences shown.

B1: Encephalitozoon hellem polar tube protein 2 (EhPTP2), yeast two-hybrid fusion (protein, UniProt P0CAT5 1-272)
chain: MLLLFTVVTLVSAAQVAPVTPQAAVPTQFLPGAQQKIGGVDNRCANKQVEGVQIFQGDMADCPKRNSEAANAMVQRAKQKALEIYNKEISKGPTPKDSGQCIERAVQGTDRCILAKIIDKAVNMLKYRISKVGNATALFRGNKLISLILNVDYGLKPFFTVVKKKTKRVFPQGDELNFNGIGQLIGVKGTFPQDNNDECKPCDSPKKTVETVAEECNLGCQLKGTPGLISRAIQKKEVKESSKDGEKSSTQNGEGTTDDEDGQQSPDGNGPE
B2: Encephalitozoon hellem polar tube protein 1 (EhPTP1), yeast two-hybrid fusion (protein, UniProt O76273 1-453)
chain: MKGISKILSASIMVMKLGNVYSAVPLCSNTYDPSQQQPSYVLIPSTPEAITNCAYSPKNAYVPSSPTTSSSTPGTNNDNETSPTTEDVGTCKISVVKHCDTPGASSTPCEPEQTIPAQPVTMATVTPAIIASVQTPSVVSVIPVTQKVIQPATMIVPPSSIIPGYYPNGTPAAPGQQGQILSGSVLAPGASSCQLVPGNTPGQMLPGMTPGVSPCLPTQGGDGSNQTIPGIVYPCQPGQGGSGSNQTIPGVISPCQPGQGGSGSNQTIPGIVYPCQPGQGGSGSNQTIPGVISPCQPGQGGSGSNQTIPGIVYPCQPGQNGDGSNQTIPGVISPCQPGQGGNGNGTTGQPGQCVSVPQTPNPIAMPPISGISGNGYPTSTTYTQSLGQLGPCIDVQKPTSSCESQTNEKSTMQYAMEACAAPTPTVVIGNSEYLVGPGMYSSLTSPCNSCCQC

Biological target: Encephalitozoon hellem sporoplasm surface protein 1 (EhSSP1), yeast two-hybrid fusion (Encephalitozoon hellem)
Assay: two-hybrid; EhSSP1 bait in pGBKT7-BD (Y2H Gold) mated with preys in pGADT7-AD (Y187); selection on QDO/X/A plates, 30°C, 5 to 7 days

Row | Binder | binding
1 | B1 | no binding
2 | B2 | no binding
